Assay [1] has as its target T1, Mre11-C terminal region fused to lexA-DBD (S. cerevisiae) (UniProt P32829).
T1 sequence: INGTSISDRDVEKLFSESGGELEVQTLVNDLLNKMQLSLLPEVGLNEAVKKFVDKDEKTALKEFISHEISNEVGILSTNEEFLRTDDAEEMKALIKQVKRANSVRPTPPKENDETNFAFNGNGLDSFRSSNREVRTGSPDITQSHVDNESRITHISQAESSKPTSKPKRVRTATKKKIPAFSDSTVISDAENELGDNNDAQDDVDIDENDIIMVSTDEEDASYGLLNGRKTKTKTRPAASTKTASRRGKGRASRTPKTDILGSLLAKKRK
The assay is described as follows: two-hybrid.

Assay [2] deals with T2, Sgs1-Helicase core fused to lexA-DBD (S. cerevisiae) (UniProt P35187).
T2 sequence: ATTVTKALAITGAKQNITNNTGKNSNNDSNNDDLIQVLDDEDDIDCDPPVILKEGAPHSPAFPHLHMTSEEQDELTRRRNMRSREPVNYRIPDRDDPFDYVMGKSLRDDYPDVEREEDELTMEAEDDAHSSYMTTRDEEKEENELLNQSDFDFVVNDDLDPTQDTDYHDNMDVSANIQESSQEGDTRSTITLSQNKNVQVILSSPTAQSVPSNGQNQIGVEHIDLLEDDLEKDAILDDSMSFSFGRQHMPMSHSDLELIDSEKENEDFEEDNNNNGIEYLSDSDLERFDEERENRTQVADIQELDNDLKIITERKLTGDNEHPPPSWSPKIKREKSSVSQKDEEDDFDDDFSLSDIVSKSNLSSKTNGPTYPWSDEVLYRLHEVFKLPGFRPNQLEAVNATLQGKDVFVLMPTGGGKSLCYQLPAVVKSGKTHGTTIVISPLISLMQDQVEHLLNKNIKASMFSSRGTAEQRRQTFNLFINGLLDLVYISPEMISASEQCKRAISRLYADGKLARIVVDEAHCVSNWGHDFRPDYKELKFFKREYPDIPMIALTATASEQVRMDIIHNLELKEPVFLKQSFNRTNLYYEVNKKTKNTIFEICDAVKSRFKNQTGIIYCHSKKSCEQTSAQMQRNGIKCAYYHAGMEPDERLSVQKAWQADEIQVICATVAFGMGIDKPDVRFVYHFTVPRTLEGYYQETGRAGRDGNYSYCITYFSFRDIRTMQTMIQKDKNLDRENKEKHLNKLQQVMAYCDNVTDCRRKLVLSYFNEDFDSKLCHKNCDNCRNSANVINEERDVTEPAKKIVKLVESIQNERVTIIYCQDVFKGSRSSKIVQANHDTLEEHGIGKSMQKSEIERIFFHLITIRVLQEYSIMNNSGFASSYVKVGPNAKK
The assay is described as follows: two-hybrid.

Consider four molecules from paper doi:10.1101/2022.01.13.476264.

No constants are given. Whether binding was seen depends on the method and setting. Some results given as binding are weak or reduced against the parent protein; the word gives no strength. Where a sequence is shown, tags or fusion partners need not be part of it.

B1: Nej1 (wild type) fused to HA-AD (protein, UniProt Q06148 1-342)
chain: MDSELKGQQLSDAEWCVKKINGEGNCLLLFLPMSSPTTIVMIVLVSLERLVPYVFKLSQTQLSQQCQSQGFTDSISLNLIKLKLMDILQAPQEINQIGLVDSNLVFSFDVSADITVSINSVPSHVTKDMFYMILQSLCMLLLKLVNLSTQYHYVQRDILNEKQKCLDFLLISLRDLDGGSKVISQWAPENSKNYESLQQCTDDDIIKKLLHKGKFQHQEFLADSLKTLLSLRNKFQDVSRFEESGELNKKERVRFPAVNHFYNDDFELQADPTNEARPNSRGKIKPKTDFKPKSRESSTSSQLRLENFSESEATPEKTKSSSSLVEEYPQKKRKFGKVRIKN
Take B1: the binding result in assay [1] and in assay [2] was “binds” each time.

B2: Nej1 V338A fused to HA-AD (protein, UniProt Q06148 1-342)
chain: MDSELKGQQLSDAEWCVKKINGEGNCLLLFLPMSSPTTIVMIVLVSLERLVPYVFKLSQTQLSQQCQSQGFTDSISLNLIKLKLMDILQAPQEINQIGLVDSNLVFSFDVSADITVSINSVPSHVTKDMFYMILQSLCMLLLKLVNLSTQYHYVQRDILNEKQKCLDFLLISLRDLDGGSKVISQWAPENSKNYESLQQCTDDDIIKKLLHKGKFQHQEFLADSLKTLLSLRNKFQDVSRFEESGELNKKERVRFPAVNHFYNDDFELQADPTNEARPNSRGKIKPKTDFKPKSRESSTSSQLRLENFSESEATPEKTKSSSSLVEEYPQKKRKFGKARIKN
As to B2, the binding entry in assay [1] and in assay [2] was “binds” in each case.

B3: Nej1-2 (FGKV→AAAA) fused to HA-AD (protein, UniProt Q06148 1-342)
chain: MDSELKGQQLSDAEWCVKKINGEGNCLLLFLPMSSPTTIVMIVLVSLERLVPYVFKLSQTQLSQQCQSQGFTDSISLNLIKLKLMDILQAPQEINQIGLVDSNLVFSFDVSADITVSINSVPSHVTKDMFYMILQSLCMLLLKLVNLSTQYHYVQRDILNEKQKCLDFLLISLRDLDGGSKVISQWAPENSKNYESLQQCTDDDIIKKLLHKGKFQHQEFLADSLKTLLSLRNKFQDVSRFEESGELNKKERVRFPAVNHFYNDDFELQADPTNEARPNSRGKIKPKTDFKPKSRESSTSSQLRLENFSESEATPEKTKSSSSLVEEYPQKKRKAAAARIKN
Take B3: the binding result in assay [1] and in assay [2] was “binds” each time.

B4: Nej1 F335A fused to HA-AD (protein, UniProt Q06148 1-342)
chain: MDSELKGQQLSDAEWCVKKINGEGNCLLLFLPMSSPTTIVMIVLVSLERLVPYVFKLSQTQLSQQCQSQGFTDSISLNLIKLKLMDILQAPQEINQIGLVDSNLVFSFDVSADITVSINSVPSHVTKDMFYMILQSLCMLLLKLVNLSTQYHYVQRDILNEKQKCLDFLLISLRDLDGGSKVISQWAPENSKNYESLQQCTDDDIIKKLLHKGKFQHQEFLADSLKTLLSLRNKFQDVSRFEESGELNKKERVRFPAVNHFYNDDFELQADPTNEARPNSRGKIKPKTDFKPKSRESSTSSQLRLENFSESEATPEKTKSSSSLVEEYPQKKRKAGKVRIKN
Consider B4, for which the binding entry in assay [1] and in assay [2] was “binds” each time.
